No constants are given. Whether binding was seen depends on the method and setting. Binding seen in cells or lysates may run through a third protein. Some entries that bind do so weakly or less than the wild type.
Assays:
[1] = target: annexin A5 (ANXA5) (human (endogenous in HEK 293)) (UniProt P08758); assay: co-IP; reciprocal: anti-BKCa α or anti-ANXA5 antibody on Protein G Dynabeads, precleared RIPA lysate of HEK 293 cells, 1 h at room temperature, washed 3 times in PBS, eluted with 0.1 M citrate pH 2-3, western blot; bead control without antibody
[2] = target: α subunit of the large conductance, voltage- and Ca2+-activated potassium channel (BKCa α) (human) (UniProt Q12791); assay: as above

The chains behind the UniProt entries cited, without tags or fusion partners.
UniProt P08758: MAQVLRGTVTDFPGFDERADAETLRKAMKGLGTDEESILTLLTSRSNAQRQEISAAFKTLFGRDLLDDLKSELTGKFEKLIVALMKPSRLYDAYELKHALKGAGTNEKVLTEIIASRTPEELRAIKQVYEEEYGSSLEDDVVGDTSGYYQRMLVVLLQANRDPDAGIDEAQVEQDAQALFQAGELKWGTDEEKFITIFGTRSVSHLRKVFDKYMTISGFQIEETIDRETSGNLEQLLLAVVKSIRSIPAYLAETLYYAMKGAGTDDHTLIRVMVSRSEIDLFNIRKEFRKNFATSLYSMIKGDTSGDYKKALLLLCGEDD
UniProt Q12791: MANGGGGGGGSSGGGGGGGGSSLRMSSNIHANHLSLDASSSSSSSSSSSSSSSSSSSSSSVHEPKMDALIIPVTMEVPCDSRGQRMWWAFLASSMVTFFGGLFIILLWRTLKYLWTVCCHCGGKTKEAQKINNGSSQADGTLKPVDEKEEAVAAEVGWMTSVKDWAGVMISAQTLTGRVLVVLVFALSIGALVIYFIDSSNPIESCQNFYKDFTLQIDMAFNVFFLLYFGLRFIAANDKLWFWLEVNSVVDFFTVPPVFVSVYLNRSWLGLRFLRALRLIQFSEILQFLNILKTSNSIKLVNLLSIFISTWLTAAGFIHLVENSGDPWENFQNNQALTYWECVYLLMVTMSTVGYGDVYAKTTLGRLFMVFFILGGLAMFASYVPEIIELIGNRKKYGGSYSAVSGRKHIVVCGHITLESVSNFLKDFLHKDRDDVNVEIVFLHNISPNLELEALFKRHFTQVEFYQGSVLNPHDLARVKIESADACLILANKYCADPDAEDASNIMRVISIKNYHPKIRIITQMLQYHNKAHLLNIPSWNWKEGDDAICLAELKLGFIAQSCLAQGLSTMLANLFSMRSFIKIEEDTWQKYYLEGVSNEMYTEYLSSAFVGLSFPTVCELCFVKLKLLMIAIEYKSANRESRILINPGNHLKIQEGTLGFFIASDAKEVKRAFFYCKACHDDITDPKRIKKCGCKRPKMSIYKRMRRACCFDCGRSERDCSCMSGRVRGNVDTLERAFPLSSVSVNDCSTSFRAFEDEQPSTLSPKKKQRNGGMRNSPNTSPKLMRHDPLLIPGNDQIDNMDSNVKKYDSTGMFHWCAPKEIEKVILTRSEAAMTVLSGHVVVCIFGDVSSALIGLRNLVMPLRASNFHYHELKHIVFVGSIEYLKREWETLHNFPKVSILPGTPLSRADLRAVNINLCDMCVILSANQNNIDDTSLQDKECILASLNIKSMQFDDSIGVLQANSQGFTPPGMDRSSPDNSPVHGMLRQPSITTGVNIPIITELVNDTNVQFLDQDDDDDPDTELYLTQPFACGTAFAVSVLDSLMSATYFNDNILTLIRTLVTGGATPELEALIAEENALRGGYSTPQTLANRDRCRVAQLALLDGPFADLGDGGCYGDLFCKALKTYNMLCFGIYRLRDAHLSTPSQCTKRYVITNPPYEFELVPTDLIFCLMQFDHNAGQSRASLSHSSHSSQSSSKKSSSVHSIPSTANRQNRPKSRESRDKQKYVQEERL

| binding [1] | binding [2] | Substance |
| --- | --- | --- |
| binds |  | α subunit of the large conductance, voltage- and Ca2+-activated potassium channel (BKCa α) (from UniProt Q12791 1-1236) |
|  | binds | annexin A5 (ANXA5) (from UniProt P08758 1-320) |
